Experimental data: the supplement of paper PMC10735217
Where a name gives a salt, the structure may show the parent alone. This is one part of the list. Single values are uncertain here, since repeats match poorly.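 Human kidney-derived cells stably carry a construct in which eight TEAD-binding elements drive luciferase, measured by luminescence in a drug-repurposing library screen. A hit is any compound whose signal exceeds the plate mean by more than five robust Z scores.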

System: HEK293A TEAD-LUC reporter
Assay: TEAD-luciferase reporter activity (YAP activation), robust Z score vs plate; higher = stronger YAP/TEAD activation
Conditions: 24 h

SMILES	TEAD-luciferase reporter activity (compound concentration: 200 nM)	TEAD-luciferase reporter activity (compound concentration: 2 uM)	TEAD-luciferase reporter activity (compound concentration: 10 uM)
CCc1cc(OCc2ccc(-c3ccccc3-c3nnn[nH]3)cc2)c2ccccc2n1	inactive: -0.554	inactive: -0.399	inactive: 4.75
COCCCOc1cc(C[C@@H](C[C@H](N)[C@@H](O)C[C@H](C(=O)NCC(C)(C)C(N)=O)C(C)C)C(C)C)ccc1OC	inactive: -2.47	inactive: -0.0469	inactive: 2.25
C=CC1=C(C(=O)O)N2C(=O)[C@@H](NC(=O)/C(=N\O)c3csc(N)n3)[C@H]2SC1 [cefdinir]		inactive: -2.53	
C=CC1=C(C(=O)O)N2C(=O)[C@@H](NC(=O)/C(=N\O)c3csc(N)n3)[C@H]2SC1	inactive: -1.63		inactive: -1.88
OCC1CNCC(O)C1O (stereo not given)	inactive: 3.1	inactive: -1.07	inactive: 0.47
Nc1nc(=O)c2ncn(CCC(O)CO)c2[nH]1 (stereo not given) [buciclovir]	inactive: 0.85	inactive: 0.143	inactive: 0.675
CN(C)C(=O)C1CCCN(c2nc3ncccc3o2)C1 (stereo not given)	inactive: 1.83		inactive: 1.97
C1N2CN3CN1CN(C2)C3	inactive: -0.877	inactive: -1.09	inactive: -0.349
N[C@H](Cc1ccccc1)C(=O)O	inactive: 2.46	inactive: 0.57	inactive: 0.00179
Cc1nc(O)c(C#N)cc1-c1ccc(C#N)cc1	inactive: 0.606	inactive: 0.128	inactive: 0.33
CC(=O)NCCC(=O)N1Cc2ccccc2CC2(CCCN2CCc2ccc(C)cc2)C1 (stereo not given)	inactive: 0.519		inactive: 1.03
Nc1cc(N)c(N=Nc2ccc(S(N)(=O)=O)cc2)c(C(=O)O)c1	inactive: -0.633	inactive: 1.67	inactive: -0.604
CCCCC1C(=O)N(c2ccccc2)N(c2ccc(O)cc2)C1=O (stereo not given) [Oxyphenbutazone]	inactive: -1.63	inactive: 0.328	inactive: -0.689
CC(N)CCCC(C)(C)O (stereo not given)	inactive: 2.03	inactive: 0.688	inactive: -0.0362
CNC(=O)[C@@H](NC(=O)[C@H](CC(C)C)NC(=O)C(S)CCN1C(=O)N(C)C(C)(C)C1=O)C(C)(C)C (stereo not given in full)	inactive: 4.56	inactive: 1.27	inactive: 1.19
CC(=O)OC(C)C(=O)OC(C)C(=O)O (stereo not given)	inactive: -0.515	inactive: -0.812	inactive: -0.482
CC(=O)OCC(=O)[C@@]1(OC(=O)c2ccco2)[C@H](C)C[C@H]2[C@@H]3CCC4=CC(=O)C=C[C@]4(C)[C@@]3(F)[C@@H](O)C[C@@]21C [dexamethasone acefurate]	inactive: -1.55	inactive: 1.49	active: 7.43
O=C(NNC(=O)[C@@H]1CC[C@@H]2CN1C(=O)N2OS(=O)(=O)O)[C@@H]1CCCNC1 [Zidebactam]	inactive: 2.87	inactive: 3.9	inactive: 0.246
Cc1ccc2c(Br)cc(Br)c(OC(=O)c3ccc(F)cc3)c2n1	inactive: -0.719	inactive: 0.746	inactive: 1.69

SMILES	TEAD-luciferase reporter activity (compound concentration: 200 nM)	TEAD-luciferase reporter activity (compound concentration: 2 uM)	TEAD-luciferase reporter activity (compound concentration: 10 uM)
CCCCC(CC)CNC(=N)NC(=N)NCCCCCCNC(=N)NC(=N)NCC(CC)CCCC (stereo not given)		inactive: -0.894	
CCCCC(CC)CNC(=N)NC(=N)NCCCCCCNC(=N)NC(=N)NCC(CC)CCCC (stereo not given) [Alexidine dihydrochloride]	inactive: -1.68		inactive: 1.21
COc1cc2nc(N3CCN(C(=O)COc4c(OC)cccc4C(C)C)CC3)nc(N)c2cc1OC	inactive: -0.246	inactive: -0.596	inactive: -0.716
NS(=O)(=O)c1c(Cl)ccc(NC(=O)Nc2cccc(Cl)c2Cl)c1O	inactive: -0.662	inactive: -0.0381	inactive: -0.00558
CCCN1CCCC1CNC(=O)c1cc(S(N)(=O)=O)ccc1OC (stereo not given) [Prosulpride]	inactive: -1.06	inactive: -0.326	inactive: 0.273
CCOc1ccc(-c2nn3ncccc3c2-c2ccc(S(C)(=O)=O)cc2)cc1	inactive: 0.326	inactive: -1.1	inactive: -2.03
CNC(=O)c1c(C)oc2cc(Oc3ccnc4cc(OCCN5CCOCC5)ccc34)ccc12	active: 10.4	inactive: -0.27	inactive: -0.0586
CC#CCC(C)[C@H](O)/C=C/C1[C@H](O)C[C@@H]2Oc3c(CCCC(=O)O)cccc3[C@H]12 (stereo not given in full) [beraprost sodium]	inactive: -0.85	inactive: 1.21	inactive: 2.38
C[C@@]1(C(=O)Nc2ccc(F)nc2)CCCN1c1nc(Nc2cc(C3CC3)[nH]n2)c2cccn2n1	inactive: -2.18	inactive: -2.42	inactive: 1.92
O[C@@H]1CO[C@H]2[C@@H]1OC[C@H]2Oc1nc2nc(-c3ccc(-c4ccccc4)cc3)c(Cl)cc2[nH]1	inactive: -0.218	inactive: -1.03	inactive: -1.34
OC[C@H]1O[C@@H](c2ccc(F)c(Cc3cc4ccccc4s3)c2)[C@H](O)[C@@H](O)[C@@H]1O [Ipragliflozin L-proline]	inactive: -1.14	inactive: -1.89	inactive: -2.29
Cc1cc(Nc2ncc(F)c(N[C@H]3[C@@H](C(N)=O)[C@@H]4C=C[C@H]3C4)n2)ccc1N1CCN(C)CC1	inactive: 0.759	inactive: 1.9	inactive: 0.0309
CCCN(CCCCN1C(=O)CC2(CCCC2)CC1=O)C1COc2cccc(C(C)=O)c2C1 (stereo not given)	inactive: 0.835	inactive: -1.3	inactive: -0.00599
CC(=O)Nc1ccc(C(=O)Nc2ccccc2N)cc1 [Tacedinaline]		active: 16.4	
CC(=O)Nc1ccc(C(=O)Nc2ccccc2N)cc1 [CI994 (Tacedinaline)]	inactive: 0.132		inactive: 2.08
CCC1OC(=O)C(C)C(OC2CC(C)(OC)C(O)C(C)O2)C(C)C(OC2OC(C)CC(N(C)C)C2O)C(C)(O)CC(C)C(=O)C(C)C(O)C1(C)O (stereo not given) [erythromycin, Andromaco]	inactive: -1.33	inactive: -0.503	inactive: 0.69
CN(CCc1c[nH]c2ccccc12)c1ncnc2c1ncn2[C@@H]1O[C@H](C(=O)NC2CC2)[C@@H](O)[C@H]1O	inactive: 0.564	inactive: -1.09	inactive: 1.73
Cc1cc2ncc(NC(=O)Nc3ccc(F)cc3F)c(-c3ccccc3Cl)c2cc1C	inactive: 0.217	inactive: 2.39	inactive: 3.5
O=C(C1CCCN1C(=O)c1ccccc1)N1CCC(c2ccccc2)CC1 (stereo not given)	inactive: 0.624		inactive: 2.96

SMILES	TEAD-luciferase reporter activity (compound concentration: 200 nM)	TEAD-luciferase reporter activity (compound concentration: 2 uM)	TEAD-luciferase reporter activity (compound concentration: 10 uM)
CC(NC(=O)C(CS)C(C)c1ccccc1)C(=O)O (stereo not given)	inactive: 1.24		inactive: -0.1
COC(=O)C(C)c1cccc(C(c2ccccc2)n2ccnc2)c1 (stereo not given)	inactive: 1.9	inactive: -0.566	inactive: -0.236
C[C@H](CNCCNC[C@@H](C)N1C(=O)c2cccc3cc([N+](=O)[O-])cc(c23)C1=O)N1C(=O)c2cccc3cc([N+](=O)[O-])cc(c23)C1=O [Bisnafide mesilate]	inactive: 0.854	inactive: -1.71	inactive: 1.38
N[C@H](CO)C(=O)O [D-Serine]	inactive: 2.07	inactive: -0.404	inactive: 0.162
CC(COc1ccccc1)N(CCCl)Cc1ccccc1 (stereo not given) [Phenoxybenzamine hydrochloride]		inactive: -1.17	
CC(COc1ccccc1)N(CCCl)Cc1ccccc1 (stereo not given) [Dibenzyline63-92-3]	inactive: -1.38		inactive: 0.735
COc1ccc2[nH]cc(CCNC(=O)CN)c2c1	inactive: 0.502	inactive: -2.58	inactive: 0.74
O=C(O)CCS[C@H](CC(=O)O)c1ccccc1CCCCCCCCc1ccccc1	inactive: -1.17	inactive: -1.43	inactive: 0.344
CCNc1nc(OC)c(C(=O)NCC2CCCN2CC)nc1Cl (stereo not given)	inactive: -0.534	inactive: -1.07	inactive: -0.986
Cc1ccc2[nH]c(C(=O)O)c(NC(=O)c3ccccc3)c2c1	active: 8.58	inactive: -0.447	inactive: 1.71
CC(C)(Oc1ccc(CCNC(=O)c2ccc(Cl)cc2)cc1)C(=O)O [bezafibrate]	inactive: -2.02	inactive: -1.04	active: 5.06
CCCC(=O)Nc1cc(-c2nn(C)c(=O)c3ccccc23)ccc1N1CCOCC1	inactive: 0.401	inactive: -0.111	inactive: 0.487
CC(CO)(CO)NCc1ccc2c(c1)-c1cccc3cccc-2c13	inactive: 1.09	inactive: 2.53	inactive: 1.15
CC1(C)COC(=O)N1c1nc(-c2ccc(C#N)cc2)cs1	inactive: -1.19	inactive: -1.82	inactive: -0.69
C/C(=N\OCC(=O)OCCN(C)C)c1ccc(Cl)cc1	inactive: -1.24	inactive: 1.21	inactive: -1.44
O=C1C(=O)C(CCC2CCC3CCCCC3C2)C(=O)c2ccccc21 (stereo not given)	inactive: -0.503	inactive: -2.27	inactive: -2.43
OC[C@H]1O[C@@H](c2ccc(Cl)c(Cc3ccc(OCCOC4CC4)cc3)c2)[C@H](O)[C@@H](O)[C@@H]1O [bexagliflozin]	inactive: -0.802	inactive: 2.18	inactive: 0.832
CC(C)NCC(O)COc1ccc(OCCOCC2CC2)cc1 (stereo not given)	inactive: -2.82	inactive: -0.458	inactive: 2.05
CC(=O)Oc1cc(OC(C)=O)c2c(c1)O[C@H](c1cc(OC(C)=O)c(OC(C)=O)c(OC(C)=O)c1)[C@H](OC(=O)c1cc(OC(C)=O)c(OC(C)=O)c(OC(C)=O)c1)C2	inactive: -1.21	inactive: -1.23	inactive: -0.817

Three entries from above in a different format.
SMILES | TEAD-luciferase reporter activity (compound concentration: 200 nM) | TEAD-luciferase reporter activity (compound concentration: 2 uM) | TEAD-luciferase reporter activity (compound concentration: 10 uM)
O[C@@H]1CO[C@H]2[C@@H]1OC[C@H]2Oc1nc2nc(-c3ccc(-c4ccccc4)cc3)c(Cl)cc2[nH]1 | inactive: -0.218 | inactive: -1.03 | inactive: -1.34
CC(COc1ccccc1)N(CCCl)Cc1ccccc1 (stereo not given) [Dibenzyline63-92-3] | inactive: -1.38 |  | inactive: 0.735
COc1ccc2[nH]cc(CCNC(=O)CN)c2c1 | inactive: 0.502 | inactive: -2.58 | inactive: 0.74
